PubChem BioAssay AID1508597, Cure First – 2020

Purpose: 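Genes whose silencing sensitises or protects ovarian cancer cells against rucaparib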 (primary screen)
System: human ovarian carcinoma lines grown from tumours: OCI-P5x (papillary serous) and OCI-C5x (clear cell)
Knock-down reagent: siRNA pool against human genes, 1.25 pmol siRNA per well
Time to read-out: 72 h or 96 h, depending on the cell culture
Conditions: rucaparib 20 µM (about IC30) or vehicle, present until read-out
Rucaparib or vehicle: Vehicle
Cell line: OCI-C5x (clear cell)
Measured: 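ATP luminescence measured at 72 or 96 h according to the culture, then normalised and expressed as percent viability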
Reading the numbers: viability, normalised: higher = more viable cells remaining
Hit rule: 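a well counts as a hit if its normalised viability is under 80 percent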
Calls: active = viability under 80%; inactive = viability 80% or more
This is an unselected part of the about 2,100 reagents, in one setting of the screen. 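Calls flag viability under 80% in either arm, not effects specific to rucaparib; the reference for percent is not stated.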 Entries without a mark were called inactive. Some reagents were tested in more than one well and are listed for each. Not given: the 100% reference.

target gene	PubChem SID	technical replicate	viability, normalised (%)
RPS19BP1 (GeneID 91582)	SID405528275	1	60.1 (active)
RPS19BP1 (GeneID 91582)	SID405528275	2	46.8 (active)
RPS19BP1 (GeneID 91582)	SID405528275	3	41.9 (active)
NEK6 (GeneID 10783)	SID405527918	1	78.2 (active)
NEK6 (GeneID 10783)	SID405527918	2	72.5 (active)
NEK6 (GeneID 10783)	SID405527918	3	42 (active)
TADA3 (GeneID 10474)	SID405526520	1	64.9 (active)
TADA3 (GeneID 10474)	SID405526520	2	64.5 (active)
TADA3 (GeneID 10474)	SID405526520	3	77.5 (active)
GATAD2A (GeneID 54815)	SID405526808	1	49.7 (active)
GATAD2A (GeneID 54815)	SID405526808	2	64.1 (active)
GATAD2A (GeneID 54815)	SID405526808	3	62.8 (active)
DLG5 (GeneID 9231)	SID405527499	1	48.5 (active)
DLG5 (GeneID 9231)	SID405527499	2	33.3 (active)
DLG5 (GeneID 9231)	SID405527499	3	32.1 (active)
TET1 (GeneID 80312)	SID405526553	1	46.6 (active)
TET1 (GeneID 80312)	SID405526553	2	61 (active)
TET1 (GeneID 80312)	SID405526553	3	68.7 (active)
DPH3 (GeneID 285381)	SID405528243	1	30.8 (active)
DPH3 (GeneID 285381)	SID405528243	2	42.2 (active)
DPH3 (GeneID 285381)	SID405528243	3	31.9 (active)
AGRN (GeneID 375790)	SID405527958	1	37.4 (active)
AGRN (GeneID 375790)	SID405527958	2	49.2 (active)
AGRN (GeneID 375790)	SID405527958	3	53.1 (active)
PRKCD (GeneID 5580)	SID405528600	1	65 (active)
PRKCD (GeneID 5580)	SID405528600	2	49 (active)
PRKCD (GeneID 5580)	SID405528600	3	43.7 (active)
DHX34 (GeneID 9704)	SID405528215	1	44.7 (active)
DHX34 (GeneID 9704)	SID405528215	2	45.4 (active)
DHX34 (GeneID 9704)	SID405528215	3	38.7 (active)

Not a retest: entries from further up.
target gene	PubChem SID	technical replicate	viability, normalised (%)
DPH3 (GeneID 285381)	SID405528243	2	42.2 (active)
DPH3 (GeneID 285381)	SID405528243	3	31.9 (active)
AGRN (GeneID 375790)	SID405527958	1	37.4 (active)
AGRN (GeneID 375790)	SID405527958	2	49.2 (active)
AGRN (GeneID 375790)	SID405527958	3	53.1 (active)
PRKCD (GeneID 5580)	SID405528600	1	65 (active)
PRKCD (GeneID 5580)	SID405528600	2	49 (active)
PRKCD (GeneID 5580)	SID405528600	3	43.7 (active)
DHX34 (GeneID 9704)	SID405528215	1	44.7 (active)

Further records follow.
target gene	PubChem SID	technical replicate	viability, normalised (%)
NME3 (GeneID 4832)	SID405527079	1	49.3 (active)
NME3 (GeneID 4832)	SID405527079	1	43.7 (active)
NME3 (GeneID 4832)	SID405527079	2	47.3 (active)
NME3 (GeneID 4832)	SID405527079	2	35.5 (active)
NME3 (GeneID 4832)	SID405527079	3	40.3 (active)
NME3 (GeneID 4832)	SID405527079	3	26 (active)
PRMT5 (GeneID 10419)	SID405527203	1	43.4 (active)
PRMT5 (GeneID 10419)	SID405527203	2	34.3 (active)
PRMT5 (GeneID 10419)	SID405527203	3	49.7 (active)
NME5 (GeneID 8382)	SID405527081	1	59.1 (active)
NME5 (GeneID 8382)	SID405527081	1	51.7 (active)
NME5 (GeneID 8382)	SID405527081	2	50.1 (active)
NME5 (GeneID 8382)	SID405527081	2	60.7 (active)
NME5 (GeneID 8382)	SID405527081	3	46.7 (active)
NME5 (GeneID 8382)	SID405527081	3	54.4 (active)
NTRK3 (GeneID 4916)	SID405527399	1	82
NTRK3 (GeneID 4916)	SID405527399	2	55.3 (active)
NTRK3 (GeneID 4916)	SID405527399	3	61.9 (active)
PAK6 (GeneID 56924)	SID405526408	1	74.2 (active)
PAK6 (GeneID 56924)	SID405526408	1	62.6 (active)
PAK6 (GeneID 56924)	SID405526408	2	66.4 (active)
PAK6 (GeneID 56924)	SID405526408	2	60.3 (active)
PAK6 (GeneID 56924)	SID405526408	3	49.1 (active)
PAK6 (GeneID 56924)	SID405526408	3	50.2 (active)
ZSCAN21 (GeneID 7589)	SID405526327	1	74.4 (active)
ZSCAN21 (GeneID 7589)	SID405526327	2	63.8 (active)
ZSCAN21 (GeneID 7589)	SID405526327	3	65.1 (active)
